In PMC11523043:

Legend:
Assay in all cases: co-IP; lysates of cells (HEK293, HeLa or H1299) transfected with the Flag-tagged bait, anti-Flag (M2) agarose, 4°C for 4 hours, 50 mmol/L Tris-HCl pH 8.0, 0.5% Nonidet P-40, 150 mmol/L NaCl; endogenous partner detected by IB; for Flag-USP36 also in the presence of 100 μg/mL RNase A and 100 U/mL RNase T1
[1] = target: T1, Flag-tagged Las1L (UniProt Q9Y4W2)
T1 sequence: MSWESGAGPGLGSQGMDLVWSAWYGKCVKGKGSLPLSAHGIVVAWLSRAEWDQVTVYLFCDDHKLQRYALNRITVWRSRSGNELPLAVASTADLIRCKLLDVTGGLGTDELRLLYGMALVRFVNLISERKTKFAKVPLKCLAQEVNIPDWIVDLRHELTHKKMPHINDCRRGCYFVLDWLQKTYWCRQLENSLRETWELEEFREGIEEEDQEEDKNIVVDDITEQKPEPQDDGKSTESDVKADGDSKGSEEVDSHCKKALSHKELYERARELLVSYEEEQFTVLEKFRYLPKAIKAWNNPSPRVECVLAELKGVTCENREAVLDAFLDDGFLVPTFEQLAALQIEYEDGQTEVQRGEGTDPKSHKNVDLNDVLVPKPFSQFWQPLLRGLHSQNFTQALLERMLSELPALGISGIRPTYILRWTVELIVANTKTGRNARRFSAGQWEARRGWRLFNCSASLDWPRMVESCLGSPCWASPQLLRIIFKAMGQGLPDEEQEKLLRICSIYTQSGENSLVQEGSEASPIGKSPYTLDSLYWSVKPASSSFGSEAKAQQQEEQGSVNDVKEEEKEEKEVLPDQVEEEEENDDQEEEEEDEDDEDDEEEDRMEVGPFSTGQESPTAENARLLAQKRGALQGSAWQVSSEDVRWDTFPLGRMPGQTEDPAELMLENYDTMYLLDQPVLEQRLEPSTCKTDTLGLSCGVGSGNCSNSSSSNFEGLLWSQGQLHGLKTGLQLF

[2] = target: Flag-USP36 N-terminal ubiquitin-specific protease domain
[3] = target: Flag-USP36 central region

binding [1]: no binding
Molecule: RPS27a (human (endogenous in HEK293))

binding [2]: no binding
binding [3]: no binding
B1: endogenous Nol9 (enzyme, UniProt Q5SY16 1-702)
chain: MADSGLLLKRGSCRSTWLRVRKARPQLILSRRPRRRLGSLRWCGRRRLRWRLLQAQASGVDWREGARQVSRAAAARRPNTATPSPIPSPTPASEPESEPELESASSCHRPLLIPPVRPVGPGRALLLLPVEQGFTFSGICRVTCLYGQVQVFGFTISQGQPAQDIFSVYTHSCLSIHALHYSQPEKSKKELKREARNLLKSHLNLDDRRWSMQNFSPQCSIVLLEHLKTATVNFITSYPGSSYIFVQESPTPQIKPEYLALRSVGIRREKKRKGLQLTESTLSALEELVNVSCEEVDGCPVILVCGSQDVGKSTFNRYLINHLLNSLPCVDYLECDLGQTEFTPPGCISLLNITEPVLGPPFTHLRTPQKMVYYGKPSCKNNYENYIDIVKYVFSAYKRESPLIVNTMGWVSDQGLLLLIDLIRLLSPSHVVQFRSDHSKYMPDLTPQYVDDMDGLYTKSKTKMRNRRFRLAAFADALEFADEEKESPVEFTGHKLIGVYTDFAFRITPRNRESHNKILRDLSILSYLSQLQPPMPKPLSPLHSLTPYQVPFNAVALRITHSDVAPTHILYAVNASWVGLCKIQDDVRGYTNGPILLAQTPICDCLGFGICRGIDMEKRLYHILTPVPPEELRTVNCLLVGAIAIPHCVLKCQRGIEGTVPYVTTDYNFKLPGASEKIGAREPEEAHKEKPYRRPKFCRKMK

binding [2]: no binding
binding [3]: no binding
B2: endogenous Las1L (enzyme, UniProt Q9Y4W2 1-734)
chain: T1 sequence

No constants are given. Whether binding was seen depends on the method and setting. Binding seen in cells or lysates may run through a third protein. For some assays here: Sequences can lack the tags named with a protein. Each block holds one molecule with its values, some of them ahead of it.
